Data as given in PubChem BioAssay AID686938 (Drosophila RNAi Screening Center, 2013).
In all, the deposit lists about 23,000 reagents; this is a random part of those with a known target gene and a result. In the full data, 75 (0.33%) got an active call. 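Raw plate signals without normalisation; calls rest on plate z-scores that were not deposited; ratio present for only 364 wells.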 Reagents against one gene are numbered here. Not stated in the record: the dose of the treatment.

Screen: 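Fly genes required for calcium entry once internal stores are emptied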 (primary screen)
Cells: Drosophila S2R+ cells
Reagent: long dsRNA against Drosophila genes, about 0.25 µg dsRNA per well, roughly 10,000 cells
Duration: 5 days of knock-down before the calcium assay
Conditions: thapsigargin (SERCA pump blocker) to empty calcium stores; entry signal taken 4 min after adding it
Detection: 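Per-well fluo-4 fluorescence in two replicates, unnormalised, measured in resting cells and 4 min after store depletion by the SERCA blocker thapsigargin; ratio of the two present in few wells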
Direction: calcium entry signal: higher = stronger calcium signal after store depletion; resting calcium signal: higher = higher resting calcium signal
Units: calcium entry signal in fluorescence units; resting calcium signal in fluorescence units
Rule for the call: 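Called when the plate z-score of the entry-to-rest ratio, mean of duplicates, falls below −3; wells with low overall dye signal (Fmax z below −2) or more than five off-targets excluded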
Meaning of the calls: active = strongly reduced calcium entry; inactive = no strong reduction

Targ → calcium entry signal, replicate 1 = 2.53e7; calcium entry signal, replicate 2 = 4.47e7; resting calcium signal, replicate 1 = 1.48e7; resting calcium signal, replicate 2 = 1.86e7; call = inactive
Tbp #1 → calcium entry signal, replicate 1 = 3.29e7; calcium entry signal, replicate 2 = 3.42e7; resting calcium signal, replicate 1 = 1.44e7; resting calcium signal, replicate 2 = 1.45e7; call = inactive
Tbp #2 → calcium entry signal, replicate 1 = 3.13e7; calcium entry signal, replicate 2 = 2.40e7; resting calcium signal, replicate 1 = 1.30e7; resting calcium signal, replicate 2 = 1.00e7; call = inactive
CG12384 → calcium entry signal, replicate 1 = 2.54e7; calcium entry signal, replicate 2 = 3.20e7; resting calcium signal, replicate 1 = 1.17e7; resting calcium signal, replicate 2 = 1.63e7; call = inactive
CG15676 → calcium entry signal, replicate 1 = 4.39e7; calcium entry signal, replicate 2 = 4.05e7; resting calcium signal, replicate 1 = 2.04e7; resting calcium signal, replicate 2 = 1.84e7; call = inactive
CG4956 → calcium entry signal, replicate 1 = 5.01e7; calcium entry signal, replicate 2 = 6.89e7; resting calcium signal, replicate 1 = 2.29e7; resting calcium signal, replicate 2 = 2.82e7; call = inactive
asRNA:CR33945 → calcium entry signal, replicate 1 = 4.17e7; calcium entry signal, replicate 2 = 4.32e7; resting calcium signal, replicate 1 = 1.99e7; resting calcium signal, replicate 2 = 1.64e7; call = inactive
CG31463 → calcium entry signal, replicate 1 = 4.37e7; calcium entry signal, replicate 2 = 3.28e7; resting calcium signal, replicate 1 = 2.20e7; resting calcium signal, replicate 2 = 1.73e7; call = inactive

An excerpt from above, showing only “calcium entry signal, replicate 2”.
Targ = 4.47e7
Tbp #1 = 3.42e7

Additional records follow:
tinc #1 → calcium entry signal, replicate 1 = 2.48e7; calcium entry signal, replicate 2 = 2.98e7; resting calcium signal, replicate 1 = 4.01e7; resting calcium signal, replicate 2 = 1.33e7; call = inactive
tinc #2 → calcium entry signal, replicate 1 = 3.38e7; calcium entry signal, replicate 2 = 3.16e7; resting calcium signal, replicate 1 = 3.68e7; resting calcium signal, replicate 2 = 1.48e7; call = inactive
tinc #3 → calcium entry signal, replicate 1 = 3.89e7; calcium entry signal, replicate 2 = 3.63e7; resting calcium signal, replicate 1 = 3.57e7; resting calcium signal, replicate 2 = 1.62e7; call = inactive
tinc #4 → calcium entry signal, replicate 1 = 3.18e7; calcium entry signal, replicate 2 = 2.70e7; resting calcium signal, replicate 1 = 3.80e7; resting calcium signal, replicate 2 = 1.20e7; call = inactive
